# According to publication PMC6331118:
# The chains behind the UniProt entries cited, without tags or fusion partners.
# UniProt P62820: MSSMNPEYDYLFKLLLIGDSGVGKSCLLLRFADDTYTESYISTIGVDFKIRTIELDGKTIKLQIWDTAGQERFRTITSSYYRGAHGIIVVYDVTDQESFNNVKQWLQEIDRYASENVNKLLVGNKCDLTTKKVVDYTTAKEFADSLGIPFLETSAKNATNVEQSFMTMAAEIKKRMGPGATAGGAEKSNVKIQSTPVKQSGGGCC
# Substitutions are numbered along the chain they refer to. No constants are given. Whether binding was seen depends on the method and setting. For some of these results: Binding calls can cover weak binding; strength is not graded here. For some of these results: Tags and fused reporters may be left off the sequences shown. For some of these results: In cells and extracts the contact can be indirect.
# Legend:
# 6his-Rab38^WT (1–181) = target: T1, 6his-Rab38^WT (1–181) (UniProt P57729); experiment: pull-down; direct pull-down: 1 mg GppNHp- or GDP-bound 6his-Rab38 (1-181) mixed with 1 mg cleaved SNX6 PX domain, Ni-NTA agarose, 4°C, 15 min; 10 mM Tris pH 8, 300 mM NaCl, 10 mM imidazole, 5 mM MgCl2; SDS-PAGE; both purified
# T1 sequence: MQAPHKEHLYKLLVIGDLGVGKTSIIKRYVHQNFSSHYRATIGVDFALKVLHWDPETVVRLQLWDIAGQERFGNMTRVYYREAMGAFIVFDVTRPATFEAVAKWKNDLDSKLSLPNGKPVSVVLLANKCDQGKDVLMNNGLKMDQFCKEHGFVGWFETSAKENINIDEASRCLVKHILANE
# GFP-Rab32 wt = target: T2, GFP-Rab32 wt (UniProt Q13637); experiment: co-IP; GFP-Trap kit; IHKE-1 lysate in 10 mM Tris pH 7.5, 150 mM NaCl, 0.5 mM EGTA, 0.5% NP40; blot against SNX6
# T2 sequence: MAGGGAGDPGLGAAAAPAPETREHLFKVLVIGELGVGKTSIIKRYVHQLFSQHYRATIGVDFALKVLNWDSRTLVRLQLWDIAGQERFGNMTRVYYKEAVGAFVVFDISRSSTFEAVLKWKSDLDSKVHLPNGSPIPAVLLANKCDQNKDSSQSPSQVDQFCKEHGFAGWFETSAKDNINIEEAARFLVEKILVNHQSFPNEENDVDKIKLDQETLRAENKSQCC
# GST-Rab32 Q85L = target: T3, GST-Rab32 Q85L (UniProt Q13637); experiment: pull-down; 5 μg GST fusion on glutathione agarose (or GST-Trap) beads, incubated with IHKE-1 lysate overnight; blot against SNX6; only the target purified
# T3 sequence: T2 sequence with Q85L
# GST-Rab38 Q69L = target: T4, GST-Rab38 Q69L (UniProt P57729); experiment: as above
# T4 sequence: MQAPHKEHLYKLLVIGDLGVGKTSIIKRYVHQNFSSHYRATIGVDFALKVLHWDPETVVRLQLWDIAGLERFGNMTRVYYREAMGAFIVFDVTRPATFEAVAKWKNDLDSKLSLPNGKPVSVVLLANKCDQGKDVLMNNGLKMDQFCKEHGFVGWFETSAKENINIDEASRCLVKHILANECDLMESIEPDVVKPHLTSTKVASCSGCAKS
# GST-Rab32 wt = target: T5, GST-Rab32 wt (UniProt Q13637); experiment: as above
# T5 sequence: T2 sequence
# GST-Rab1A wt = GST-Rab1A wt (UniProt P62820); experiment: as above
# GST-Rab38 wt = target: T6, GST-Rab38 wt (UniProt P57729); experiment: as above
# T6 sequence: T4 sequence with L69Q
binding (6his-Rab38^WT (1–181)),binding (GFP-Rab32 wt),binding (GST-Rab32 Q85L),binding (GST-Rab38 Q69L),binding (GST-Rab32 wt),binding (GST-Rab1A wt),binding (GST-Rab38 wt),Substance
binds,,,,,,,"SNX6 (PX domain, residues 1–193) (from UniProt Q9UNH7-1) (domain or fragment)"
,binds,binds,binds,binds,no binding,binds,endogenous SNX6 (IHKE-1 cells) (from UniProt Q9UNH7-1)
